According to patent US5852018A, “Pharmaceutical piperazine compounds” (Xenova Limited, priority 1994, dated 1998):
Where two headings read alike, the source gives them in different places. At least one read-out could not be matched to a standard name with certainty.

System: AR 1.0 cells
Experiment: Proliferation assay with and without fixed concentration of doxorubicin (sulphorhodamine B)
Assay type: cell-based, mouse
Conditions: four days, 5760 min, read-out: TOXICITY WITH CYTOTOXIC AGENT (IC 50)
Description: Compounds of formula A were examined for their ability to potentiate the toxicity of doxorubicin in AR 1.0 cells.

Structure (SMILES) | IC50 (cytotoxic agent 0.50 μg/ml) [µM] | IC50 (cytotoxic agent 1.00 μg/ml) [µM]
Cn1c(=O)/c(=C/c2ccccc2)nc(OCCCN2C(=O)c3ccccc3C2=O)/c1=C/c1ccccc1 [Compound 1824, (3Z,6Z)-3,6-Dibenzylidene-1-methyl-5-(3-phthalimidopropoxy)-3,6-dihydro-2-pyrazinone] | 0.3 | 
COc1ccc(/C=c2\[nH]c(=O)/c(=C/c3ccccc3)n(CC3CC3)c2=O)cc1 [Compound 1500] | 2 | 
COC(=O)Cn1c(=O)/c(=C/c2ccccc2)[nH]c(=O)/c1=C/c1ccc(OC)cc1 [Compound 1486, Methyl (3Z,6Z)-3-benzylidene-6-(4-methoxybenzylidene)-2,5-dioxo-1-piperazinylacetate] |  | 1
COc1ccc(/C=c2/c(=O)[nH]/c(=C\c3ccccc3)c(=O)n2CC2CC2)cc1 [Compound 1454, (3Z,6Z)-3-Benzylidene-1-cyclopropylmethyl-6-(4-methoxybenzylidene)-2,5-piperazinedione] |  | 0.5
Cn1c(=O)/c(=C/c2ccccc2)nc(OCC2OCCO2)/c1=C/c1ccccc1 [Compound 1822, (3Z,6Z)-3,6-Dibenzylidene-1-methyl-2-oxo-1,2,3,6-tetrahydro-5-pyrazinyloxyacetaldehyde ethylene acetal] | 0.5 | 
